Cleaved PARP after 72 h of treatment

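Human melanoma cells were exposed to two drugs together for 72 h in 1,536-well plates and read by automated microscopy after fixing and staining. The read-out is the fraction of cleaved-PARP-positive nuclei, in % of that fraction in the DMSO control; 200 means twice the control level of this apoptosis marker. Every drug was used at one fixed concentration, the higher of two screened. These are primary screening values without error estimates. Basal and induced levels differ widely between cell lines.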
An unselected part of the screen is shown.
An entry leaves out what has no value listed here.
A dash means that no value is listed here.

Drugs:
ENMD-2076, 0.2 µM: Cc1cc(Nc2cc(N3CCN(C)CC3)nc(/C=C/c3ccccc3)n2)n[nH]1
CP-690550, 5 µM: C[C@@H]1CCN(C(=O)CC#N)C[C@@H]1N(C)c1ncnc2[nH]ccc12
dasatinib, 0.02 µM: Cc1nc(Nc2ncc(C(=O)Nc3c(C)cccc3Cl)s2)cc(N2CCN(CCO)CC2)n1
KU-55933, 5 µM: O=c1cc(-c2cccc3c2Sc2ccccc2S3)oc(N2CCOCC2)c1
PD173074, 0.5 µM: CCN(CC)CCCCNc1ncc2cc(-c3cc(OC)cc(OC)c3)c(NC(=O)NC(C)(C)C)nc2n1
fingolimod, 10 µM: CCCCCCCCc1ccc(CCC(N)(CO)CO)cc1
VX-702, 2 µM: NC(=O)c1ccc(N(C(N)=O)c2c(F)cccc2F)nc1-c1ccc(F)cc1F
nutlin-3, 0.5 µM: COc1ccc(C2=N[C@@H](c3ccc(Cl)cc3)[C@@H](c3ccc(Cl)cc3)N2C(=O)N2CCNC(=O)C2)c(OC(C)C)c1
lenalidomide, 5 µM: Nc1cccc2c1CN(C1CCC(=O)NC1=O)C2=O (stereo unspecified)

| Combination | MeWo | MZ2-MEL | SK-MEL-5 | RPMI-7951 | MEL-HO | WM3619 | SK-MEL-30 | SK-MEL-2 | G-361 | WM451Lu | UACC-62 | 501mel |
|---|---|---|---|---|---|---|---|---|---|---|---|---|
| KU-55933 + lenalidomide | 62.8 | 65.9 | 137 | 79.1 | 27.1 | 123 | 100 | 203 | 168 | 46.2 | 79.6 | 114 |
| PD173074 + dasatinib | 69.2 | 126 | 267 | 332 | 27.9 | 127 | 83.8 | 103 | 52.2 | 62.8 | 51.4 | 375 |
| ENMD-2076 + CP-690550 | 56.9 | 63.9 | 182 | 210 | 78.1 | 94.9 | 134 | 113 | 202 | 142 | 121 | - |
| fingolimod + KU-55933 | 1870 | - | 254 | 1190 | 1670 | 5280 | 828 | - | 10300 | 11800 | 642 | - |
| ENMD-2076 + VX-702 | 104 | 44.1 | 46.6 | 111 | 175 | 94.1 | 106 | 102 | 30.4 | 95.3 | 175 | - |
| nutlin-3 + lenalidomide | 54.7 | 154 | 82.9 | 116 | 163 | 229 | 72.9 | 155 | 77.1 | 36.4 | 252 | - |
| nutlin-3 + VX-702 | 103 | 164 | 263 | 123 | 52.4 | 80.1 | 84.0 | 168 | 30.4 | 41.5 | 285 | - |
| KU-55933 + VX-702 | 54.1 | 143 | 179 | 394 | 179 | 104 | 95.8 | 109 | 77.9 | 95.6 | 222 | 92.5 |
| dasatinib + VX-702 | 50.0 | 260 | 75.0 | 577 | 233 | 120 | 188 | 116 | 138 | 226 | 178 | - |
| dasatinib + fingolimod | 291 | 172 | 571 | 2360 | 1170 | 19000 | 1210 | 3090 | 8850 | 1020 | 478 | - |
| VX-702 + CP-690550 | 76.5 | 114 | 46.0 | 33.2 | 63.0 | 84.1 | 28.1 | 110 | 152 | 72.9 | 126 | - |
| PD173074 + nutlin-3 | 143 | 101 | 1110 | 48.1 | 213 | 117 | 102 | 117 | 125 | 241 | 171 | 169 |
| lenalidomide + PD173074 | 44.5 | 21.4 | 51.4 | 62.5 | 42.8 | 100 | 56.4 | 33.4 | 80.4 | 52.5 | 60.7 | 30.5 |
| lenalidomide + ENMD-2076 | 112 | 80.5 | 107 | 210 | 78.5 | 81.3 | 103 | 195 | 111 | 200 | 191 | - |
| fingolimod + ENMD-2076 | 319 | 2440 | 173 | 1700 | 938 | 4050 | 2040 | 9290 | 255 | 797 | 292 | - |
| fingolimod + PD173074 | 136 | 41.6 | 73.5 | 505 | 233 | 1770 | 771 | 224 | 291 | 1920 | 991 | 2600 |
| CP-690550 + KU-55933 | 81.7 | 186 | 166 | 45.0 | 52.5 | 227 | 65.9 | 184 | 84.3 | 31.7 | 15.7 | 62.6 |
| nutlin-3 + KU-55933 | 113 | 134 | 73.5 | 104 | 101 | 159 | 76.8 | 49.1 | 222 | 79.9 | 330 | 62.2 |
| VX-702 + PD173074 | 140 | 67.7 | 29.1 | 70.5 | 256 | 82.9 | 76.7 | 33.2 | 45.1 | 29.2 | 72.8 | 67.4 |
| nutlin-3 + dasatinib | 141 | 396 | 41.1 | 692 | 75.0 | 287 | 161 | 158 | 59.4 | 369 | 224 | - |
| PD173074 + ENMD-2076 | 175 | 42.0 | 64.9 | 82.3 | 199 | 112 | 98.8 | 34.2 | 27.0 | 135 | 226 | 113 |

The last 2 entries again:

{"combination": "nutlin-3 + dasatinib", "MeWo": 141, "MZ2-MEL": 396, "SK-MEL-5": 41.1, "RPMI-7951": 692, "MEL-HO": 75.0, "WM3619": 287, "SK-MEL-30": 161, "SK-MEL-2": 158, "G-361": 59.4, "WM451Lu": 369, "UACC-62": 224}
{"combination": "PD173074 + ENMD-2076", "MeWo": 175, "MZ2-MEL": 42.0, "SK-MEL-5": 64.9, "RPMI-7951": 82.3, "MEL-HO": 199, "WM3619": 112, "SK-MEL-30": 98.8, "SK-MEL-2": 34.2, "G-361": 27.0, "WM451Lu": 135, "UACC-62": 226, "501mel": 113}

Source: doi:10.1371/journal.pone.0140310, primary screening data, rounded.